Measurements published in US11951204B2 (S-SKIN. CO., LTD., priority 2022, dated 2024).
Where a sequence shows no end group, the ends are not given. Strings that start with PEPTIDE1 are HELM notation: dots part the residues, brackets hold end groups and non-standard residues. Ends that are not written are not given here. * marks the point of attachment. FITC = O=C1OC2(c3ccc(O)cc3Oc3cc(O)ccc32)c2ccc(NC(=S)*)cc21; Ahx = NCCCCCC(=O)O

Test: peptide synthesis
Details: whole synthesis

| Substance | purity (crude or final not stated) |
| --- | --- |
| H-KTTKS-OH | 99.00% |
| KRRWRKIPKR | 98.23% |
| KTTKSRLRLRQRRRR | 95.83% |
| PEPTIDE1{[Pal].K.T.T.K.S}$$$$V2.0 | 97.60% |
| RKRWLRKPRP | 97.97% |
| RLRLRQRRRR | 95.11% |
| RLRLRQRRRRKTTKS | 96.31% |
| YGRKRRQRRR | 99.53% |
| {FITC-Ahx}-KRRWRKIPKR | 95.19% |
| {FITC-Ahx}-RKRWLRKPRP | 95.55% |
| {FITC-Ahx}-RLRLRQRRRR | 95.39% |
